Assay results reported in patent US20090285813A1.
No constants are given. Whether binding was seen depends on the method and setting. Some binding calls cover weakened binding; strength is not graded here.

By UniProt entry, the sequences of proteins in these tests, tags left out.
UniProt P11836: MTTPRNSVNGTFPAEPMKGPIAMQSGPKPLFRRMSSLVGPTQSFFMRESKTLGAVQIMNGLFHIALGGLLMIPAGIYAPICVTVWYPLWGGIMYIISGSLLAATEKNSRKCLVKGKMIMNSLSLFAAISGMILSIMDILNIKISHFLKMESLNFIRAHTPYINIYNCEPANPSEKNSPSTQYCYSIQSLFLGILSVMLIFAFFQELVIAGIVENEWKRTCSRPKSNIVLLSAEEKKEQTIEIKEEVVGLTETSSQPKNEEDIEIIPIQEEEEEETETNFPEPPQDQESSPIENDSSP

What was measured:
[1] = target: human CD20 (human) (UniProt P11836); experiment: anti-CD20 cellular ELISA, supernatant; rank 9 of 29
[2] = target: human CD20 (human) (UniProt P11836); experiment: anti-CD20 cellular ELISA, supernatant; rank 10 of 29
[3] = target: human CD20 (human) (UniProt P11836); experiment: anti-CD20 cellular ELISA, supernatant; rank 11 of 29
[4] = target: human CD20 (human) (UniProt P11836); experiment: anti-CD20 cellular ELISA, supernatant; rank 12 of 29
[5] = target: human CD20 (human) (UniProt P11836); experiment: anti-CD20 cellular ELISA, supernatant; rank 13 of 29
[6] = target: human CD20 (human) (UniProt P11836); experiment: anti-CD20 cellular ELISA, supernatant; rank 15 of 29
[7] = target: human CD20 (human) (UniProt P11836); experiment: anti-CD20 cellular ELISA, supernatant; rank 17 of 29
[8] = target: human CD20 (human) (UniProt P11836); experiment: anti-CD20 cellular ELISA, supernatant; rank 18 of 29
[9] = target: human CD20 (human) (UniProt P11836); experiment: anti-CD20 cellular ELISA, supernatant; rank 19 of 29
[10] = target: human CD20 (human) (UniProt P11836); experiment: anti-CD20 cellular ELISA, supernatant; rank 20 of 29
[11] = target: human CD20 (human) (UniProt P11836); experiment: anti-CD20 cellular ELISA, supernatant; rank 21 of 29
[12] = target: human CD20 (human) (UniProt P11836); experiment: anti-CD20 cellular ELISA, supernatant; rank 23 of 29
[13] = target: human CD20 (human) (UniProt P11836); experiment: anti-CD20 cellular ELISA, supernatant; rank 25 of 29
[14] = target: human CD20 (human) (UniProt P11836); experiment: anti-CD20 cellular ELISA, supernatant; rank 26 of 29
[15] = target: human CD20 (human) (UniProt P11836); experiment: anti-CD20 cellular ELISA, supernatant; rank 27 of 29
[16] = target: human CD20 (human) (UniProt P11836); experiment: anti-CD20 cellular ELISA, supernatant; rank 28 of 29
[17] = target: human CD20 (human) (UniProt P11836); experiment: anti-CD20 cellular ELISA, supernatant; rank 29 of 29

B1: anti-CD20 HuFR variant 9 (light chain BD22091, heavy chain BD20337) (antibody, human IgG1, kappa, V domains shown)
VH: QVQLVQSGAEVKKPGASVKVSCKASGYTFTSYNMHWVRQAPGQGLEWMGAIYPGNGDTSYNQKFKGRVTISADKSISTAYLQWSSLKASDTAMYYCARSHYGSNYVDYFDYWGQGTLVTVSS
VL: EIVLTQSPATLSLSPGERATLSCRASSSLSFMHWYQQKPGQPPKLLIYATSNLASGIPARFSGSGSGTEFTLTISSLQSEDFAVYYCHQWSSNPLTFGQGTKVEIKR
In the case of B1, the binding [1] is reported as “binds”.

B2: anti-CD20 HuFR variant 10 (light chain BD22108, heavy chain BD20337) (antibody, human IgG1, kappa, V domains shown)
VH: QVQLVQSGAEVKKPGASVKVSCKASGYTFTSYNMHWVRQAPGQGLEWMGAIYPGNGDTSYNQKFKGRVTISADKSISTAYLQWSSLKASDTAMYYCARSHYGSNYVDYFDYWGQGTLVTVSS
VL: DIVMTQSPLSLPVTPGEPASISCRASSSLSFMHWYQQKPGQAPRLLIYATSNLASGVPSRFSGSGSGTDFTFTISSLQPEDIATYYCHQWSSNPLTFGQGTKVEIKR
For B2, the binding [2] was “binds”.

B3: anti-CD20 HuFR variant 11 (light chain BD22092, heavy chain BD20338) (antibody, human IgG1, kappa, V domains shown)
VH: EVQLVQSGAEVKKPGESLKISCKGSGYTFTSYNMHWVRQAPGKGLEWMGAIYPGNGDTSYNQKFKGRVTISADKSISTAYLQWSSLKASDTAMYYCARSHYGSNYVDYFDYWGQGTLVTVSS
VL: DIQMTQSPSSLSASVGDRVTITCRASSSLSFMHWYLQKPGQSPQLLIYATSNLASGVPDRFSGSGSGTDFTLTISSLQAEDVAVYYCHQWSSNPLTFGQGTKVEIKR
B3 was tested, and the binding [3] was “binds”.

B4: anti-CD20 HuFR variant 12 (light chain BD22094, heavy chain BD20337) (antibody, human IgG1, kappa, V domains shown)
VH: QVQLVQSGAEVKKPGASVKVSCKASGYTFTSYNMHWVRQAPGQGLEWMGAIYPGNGDTSYNQKFKGRVTISADKSISTAYLQWSSLKASDTAMYYCARSHYGSNYVDYFDYWGQGTLVTVSS
VL: DIVMTQSPLSLPVTPGEPASISCRASSSLSFMHWYQQKPGQAPRLLIYATSNLASGVPSRFSGSGSGTEFTLTISSLQPDDFATYYCHQWSSNPLTFGQGTKVEIKR
B4 was tested, and the binding [4] was “binds”.

B5: anti-CD20 HuFR variant 13 (light chain BD22096, heavy chain BD20337) (antibody, human IgG1, kappa, V domains shown)
VH: QVQLVQSGAEVKKPGASVKVSCKASGYTFTSYNMHWVRQAPGQGLEWMGAIYPGNGDTSYNQKFKGRVTISADKSISTAYLQWSSLKASDTAMYYCARSHYGSNYVDYFDYWGQGTLVTVSS
VL: EIVLTQSPATLSLSPGERATLSCRASSSLSFMHWYQQKPGKAPKLLIYATSNLASGVPSRFSGSGSGTEFTLTISSLQPDDFATYYCHQWSSNPLTFGQGTKVEIKR
For B5, the binding [5] was “binds”.

B6: anti-CD20 HuFR variant 15 (light chain BD22102, heavy chain BD20337) (antibody, human IgG1, kappa, V domains shown)
VH: QVQLVQSGAEVKKPGASVKVSCKASGYTFTSYNMHWVRQAPGQGLEWMGAIYPGNGDTSYNQKFKGRVTISADKSISTAYLQWSSLKASDTAMYYCARSHYGSNYVDYFDYWGQGTLVTVSS
VL: EIVMTQSPATLSVSPGERATLSCRASSSLSFMHWYQQKPGQPPKLLIYATSNLASGVPSRFSGSGSGTDFTLTISSLQPEDFATYYCHQWSSNPLTFGQGTKVEIKR
In the case of B6, the binding [6] is reported as “binds”.

B7: anti-CD20 HuFR variant 17 (light chain BD22104, heavy chain BD20337) (antibody, human IgG1, kappa, V domains shown)
VH: QVQLVQSGAEVKKPGASVKVSCKASGYTFTSYNMHWVRQAPGQGLEWMGAIYPGNGDTSYNQKFKGRVTISADKSISTAYLQWSSLKASDTAMYYCARSHYGSNYVDYFDYWGQGTLVTVSS
VL: EIVMTQSPATLSVSPGERATLSCRASSSLSFMHWYLQKPGQSPQLLIYATSNLASGVPSRFSGSGSGTDFTLTISSLQPEDFATYYCHQWSSNPLTFGQGTKVEIKR
B7 was tested, and the binding [7] was “binds”.

B8: anti-CD20 HuFR variant 18 (light chain BD22085, heavy chain BD20339) (antibody, human IgG1, kappa, V domains shown)
VH: QVQLVQSGAEVKKPGASVKVSCKASGYTFTSYNMHWVRQAPGKGLEWMGAIYPGNGDTSYNQKFKGRVTITADKSTSTAYMELSSLRSEDTAVYYCARSHYGSNYVDYFDYWGQGTLVTVSS
VL: DIVMTQSPDSLAVSLGERATINCRASSSLSFMHWYQQKPGQAPRLLIYATSNLASGVPSRFSGSGSGTDFTLTISSLQPEDFATYYCHQWSSNPLTFGQGTKVEIKR
B8 was tested, and the binding [8] was “binds”.

B9: anti-CD20 HuFR variant 19 (light chain BD22107, heavy chain BD20339) (antibody, human IgG1, kappa, V domains shown)
VH: QVQLVQSGAEVKKPGASVKVSCKASGYTFTSYNMHWVRQAPGKGLEWMGAIYPGNGDTSYNQKFKGRVTITADKSTSTAYMELSSLRSEDTAVYYCARSHYGSNYVDYFDYWGQGTLVTVSS
VL: DIVMTQSPLSLPVTPGEPASISCRASSSLSFMHWYLQKPGQSPQLLIYATSNLASGIPARFSGSGSGTDFTLTISSLEPEDFAVYYCHQWSSNPLTFGQGTKVEIKR
B9 was tested, and the binding [9] was “binds”.

B10: anti-CD20 HuFR variant 20 (light chain BD22100, heavy chain BD20335) (antibody, human IgG1, kappa, V domains shown)
VH: QVQLVQSGAEVKKPGASVKVSCKASGYTFTSYNMHWVRQAPGKGLEWMGAIYPGNGDTSYNQKFKGRFTISRDNAKNSLYLQMNSLRAEDTAVYYCARSHYGSNYVDYFDYWGQGTLVTVSS
VL: DIQMTQSPSTLSASVGDRVTITCRASSSLSFMHWYQQKPGQAPRLLIYATSNLASGVPSRFSGSGSGTDFTFTISSLQPEDIATYYCHQWSSNPLTFGQGTKVEIKR
For B10, the binding [10] was “binds”.

B11: anti-CD20 HuFR variant 21 (light chain BD22103, heavy chain BD20337) (antibody, human IgG1, kappa, V domains shown)
VH: QVQLVQSGAEVKKPGASVKVSCKASGYTFTSYNMHWVRQAPGQGLEWMGAIYPGNGDTSYNQKFKGRVTISADKSISTAYLQWSSLKASDTAMYYCARSHYGSNYVDYFDYWGQGTLVTVSS
VL: DIVMTQSPLSLPVTPGEPASISCRASSSLSFMHWYQQKPGKAPKLLIYATSNLASGVPDRFSGSGSGTDFTLTISSLQAEDVAVYYCHQWSSNPLTFGQGTKVEIKR
With B11 the binding [11] was “binds”.

B12: anti-CD20 HuFR variant 23 (light chain BD22108, heavy chain BD20337) (antibody, human IgG1, kappa, V domains shown)
VH: QVQLVQSGAEVKKPGASVKVSCKASGYTFTSYNMHWVRQAPGQGLEWMGAIYPGNGDTSYNQKFKGRVTISADKSISTAYLQWSSLKASDTAMYYCARSHYGSNYVDYFDYWGQGTLVTVSS
VL: DIVMTQSPLSLPVTPGEPASISCRASSSLSFMHWYQQKPGQAPRLLIYATSNLASGVPSRFSGSGSGTDFTFTISSLQPEDIATYYCHQWSSNPLTFGQGTKVEIKR
B12 was tested, and the binding [12] was “binds”.

B13: anti-CD20 HuFR variant 25 (light chain BD22106, heavy chain BD20333) (antibody, human IgG1, kappa, V domains shown)
VH: QVQLVQSGAEVKKPGASVKVSCKASGYTFTSYNMHWVRQAPGKGLEWVGAIYPGNGDTSYNQKFKGRVTITADKSTSTAYMELSSLRSEDTAVYYCARSHYGSNYVDYFDYWGQGTLVTVSS
VL: EIVLTQSPGTLSLSPGERATLSCRASSSLSFMHWYQQKPGQAPRLLIYATSNLASGVPSRFSGSGSGTDFTFTISSLQPEDIATYYCHQWSSNPLTFGQGTKVEIKR
B13 was tested, and the binding [13] was “binds”.

B14: anti-CD20 HuFR variant 26 (light chain BD22108, heavy chain BD20338) (antibody, human IgG1, kappa, V domains shown)
VH: EVQLVQSGAEVKKPGESLKISCKGSGYTFTSYNMHWVRQAPGKGLEWMGAIYPGNGDTSYNQKFKGRVTISADKSISTAYLQWSSLKASDTAMYYCARSHYGSNYVDYFDYWGQGTLVTVSS
VL: DIVMTQSPLSLPVTPGEPASISCRASSSLSFMHWYQQKPGQAPRLLIYATSNLASGVPSRFSGSGSGTDFTFTISSLQPEDIATYYCHQWSSNPLTFGQGTKVEIKR
B14 was tested, and the binding [14] was “binds”.

B15: anti-CD20 HuFR variant 27 (light chain BD22109, heavy chain BD20341) (antibody, human IgG1, kappa, V domains shown)
VH: QVQLVQSGAEVKKPGASVKVSCKASGYTFTSYNMHWVRQAPGQGLEWMGAIYPGNGDTSYNQKFKGRVTITADKSTSTAYMELSSLRSEDTAVYYCARSHYGSNYVDYFDYWGQGTLVTVSS
VL: DIVMTQSPDSLAVSLGERATINCRASSSLSFMHWYQQKPGQPPKLLIYATSNLASGIPARFSGSGSGTDFTLTISSLEPEDFAVYYCHQWSSNPLTFGQGTKVEIKR
For B15, the binding [15] was “binds”.

B16: anti-CD20 HuFR variant 28 (light chain BD22111, heavy chain BD20336) (antibody, human IgG1, kappa, V domains shown)
VH: QVQLVQSGAEVKKPGASVKVSCKASGYTFTSYNMHWVRQAPGKGLEWVGAIYPGNGDTSYNQKFKGRFTISRDNAKNSLYLQMNSLRAEDTAVYYCARSHYGSNYVDYFDYWGQGTLVTVSS
VL: DIVMTQSPDSLAVSLGERATINCRASSSLSFMHWYQQKPGKAPKLLIYATSNLASGVPSRFSGSGSGTEFTLTISSLQPDDFATYYCHQWSSNPLTFGQGTKVEIKR
For B16, the binding [16] was “binds”.

B17: anti-CD20 HuFR variant 29 (light chain BD22104, heavy chain BD20337) (antibody, human IgG1, kappa, V domains shown)
VH: QVQLVQSGAEVKKPGASVKVSCKASGYTFTSYNMHWVRQAPGQGLEWMGAIYPGNGDTSYNQKFKGRVTISADKSISTAYLQWSSLKASDTAMYYCARSHYGSNYVDYFDYWGQGTLVTVSS
VL: EIVMTQSPATLSVSPGERATLSCRASSSLSFMHWYLQKPGQSPQLLIYATSNLASGVPSRFSGSGSGTDFTLTISSLQPEDFATYYCHQWSSNPLTFGQGTKVEIKR
In the case of B17, the binding [17] is reported as “binds”.
